# Laboratory results as given in PubChem BioAssay AID2685 (National Center for Advancing Translational Sciences (NCATS), 2010).
# This is one part of the list. Shown are side measurements of this screen, not its main read-out; they come without a call. The list favours compounds with an active or inconclusive main result. Potencies come from curve fits of mixed quality, noted in brackets.
# Assay: qHTS Assay for Lipid Storage Modulators in Drosophila S3 Cells;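 on cell number change: cells counted by Cell Tracker Red CMTPX staining in the red channel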
# Details: BODIPY lipid droplet fluorescence, 18-24 h; for cell number change: measured here: cell count max response, cells fed with added oleic acid
# Method in brief: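 Drosophila S3 cells got compounds at several concentrations plus oleic acid (400 uM solution). Laser-scanning cytometry with 488 nm excitation read lipid droplets at 500-530 nm and cells at 575-640 nm. Percent activity was relative to 20 uM Triacsin C.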
# [1] = measured here: cell number channel AC50, cells fed with added oleic acid
# [2] = measured here: lipid fluorescence (Fed channel) AC50, cells fed with added oleic acid
SMILES,cell number change [%],AC50 [1],AC50 [2]
CC(C)=CCC/C(C)=C/Cc1c(O)ccc(C(=O)/C=C/c2ccc(O)cc2)c1O,-43.4,"29.1 µM [falling, single point]","29.1 µM [falling, single point]"
Cc1ccccc1N1CCN(CC(=O)Nc2ccccc2C(=O)NC2CC2)CC1,-20.5,–,"29.1 µM [falling, partial curve, poor fit]"
CCC(=O)OCCNc1cc(Sc2nc3ccccc3[nH]2)c2nonc2c1[N+](=O)[O-],-57.7,"5.17 µM [falling, full curve]","4.61 µM [falling, full curve]"
CSc1cccc(NC(=O)C2CCN(S(=O)(=O)c3ccc(F)cc3)CC2)c1,-21.6,–,"29.1 µM [falling, single point]"
Cc1oc(-c2cccs2)nc1CS(=O)CC(=O)NCCc1ccccc1 (stereo unspecified),77.8,"6.51 µM [rising, full curve]","5.8 µM [rising, full curve]"
CSc1nnc(NC(=O)c2nc(S(=O)(=O)Cc3ccc(C)cc3)ncc2Cl)s1,12.5,–,"29.1 µM [falling, partial curve, poor fit]"
COC(=O)c1cccc(NC(=S)N2CCN(C)CC2)c1,0.246,–,"6.51 µM [rising, single point]"
CC(NS(=O)(=O)c1ccc2c(c1)C(C)(C)C(=O)N2C)c1ccccc1 (stereo unspecified),10.7,–,"0.259 µM [falling, full curve, poor fit]"
N#Cc1ccc(OCC(=O)NNC(=S)NC2CCCCC2)cc1,12.1,–,"11.6 µM [rising, single point]"
Cc1cccn2c(=O)c3cc(C#N)c(=O)n(Cc4cccnc4)c3nc12,-33.8,"4.61 µM [falling, full curve]",–
Cc1cc(N=Cc2c(O)n(-c3ccc4c(c3)OCO4)c(=O)c3ccccc23)ccn1,-33.7,"29.1 µM [falling, single point]",–
COC(=O)c1cc2c(C)cc3ccc(C)cn3c-2c1C(=O)OC,21.8,"1.3 µM [rising, full curve, poor fit]","2.06 µM [rising, full curve]"
O=C(Nc1nc2c(Cl)cccc2s1)C1CC1,11.9,–,"8.2 µM [falling, single point]"
CC(CCc1ccccc1)N1CCN(C)CC1 (stereo unspecified),-10.8,–,"29.1 µM [rising, single point]"
CS(=O)(=O)c1ccccc1C(=O)N(CCC1=CCCCC1)c1c(N)n(Cc2ccccc2)c(=O)[nH]c1=O,-16.3,"7.31 µM [falling, partial curve, poor fit]","0.259 µM [falling, single point]"
COc1ccc(NC(=O)N2CCCC2C(=O)Nc2ccc(C)c(Cl)c2)cc1 (stereo unspecified),17,–,–
O=C1CCCN1c1ncc(S(=O)(=O)c2ccc([N+](=O)[O-])cc2)s1,26.3,–,"1.16 µM [rising, partial curve, poor fit]"
COc1ccc(OC)c(N(CC(=O)O)S(=O)(=O)c2ccc(OC)c(OC)c2)c1,0.203,–,"1.84 µM [falling, full curve, poor fit]"
COc1cccc(-c2nc(CS(=O)(=O)CC(=O)N3CCCCC3)c(C)o2)c1,-8.57,–,–
c1ccc(-c2ccc(C3=Nn4c(nnc4-c4cc(-c5ccccc5)n[nH]4)SC3)cc2)cc1,-25.3,"0.259 µM [rising, partial curve, poor fit]",–

# Complete entries, looked up by structure:
# COc1cccc(-c2nc(CS(=O)(=O)CC(=O)N3CCCCC3)c(C)o2)c1 in the list: cell number change [%]: -8.57
# O=C(Nc1nc2c(Cl)cccc2s1)C1CC1 in the list: cell number change [%]: 11.9; AC50 [2]: 8.2 µM [falling, single point]
# CSc1cccc(NC(=O)C2CCN(S(=O)(=O)c3ccc(F)cc3)CC2)c1 in the list: cell number change [%]: -21.6; AC50 [2]: 29.1 µM [falling, single point]

# Later entries.

SMILES,cell number change [%],AC50 [1],AC50 [2]
O=C(Nc1cccc(C(F)(F)F)c1)Oc1ccccc1N1CCOCC1,7.87,–,–
COC(=O)c1sccc1NC(=O)Nc1cccc(F)c1,45.3,–,–
CCOc1ccc(N(CC(=O)N2CCN(Cc3ccccc3)CC2)S(C)(=O)=O)cc1,6.91,–,"29.1 µM [rising, single point]"
COc1ccc(C(=O)c2c(C)c3ccccc3n2CC(O)CNC(C)C)cc1 (stereo unspecified),-28,–,"16.4 µM [falling, partial curve]"
CCN(CC)S(=O)(=O)c1cccc(NC(=O)CSc2nc3ccccc3[nH]2)c1,0.791,"6.51 µM [rising, single point]",–
CCc1ccc(OCCNc2cc(N3CCNC(C)C3)ccc2[N+](=O)[O-])cc1 (stereo unspecified),-81.1,"7.31 µM [falling, partial curve]",–
CCCN(CCC)C(=S)Nc1cc(C(=O)OC)ccc1C(=O)OC,23.8,–,"0.259 µM [rising, partial curve]"
O=C(COc1ccccc1)N1CCc2ccccc21,-9.01,–,"0.103 µM [rising, full curve, poor fit]"
O=C(CC1CCCCC1)N1CCC(c2nc(-c3ccc(S(=O)(=O)N4CCCC4)cc3)no2)CC1,-15.8,–,"7.31 µM [falling, single point]"
COc1ccc2cc(C)c3nnc(SCc4cccnc4)n3c2c1,76.7,"20.6 µM [rising, single point]","23.1 µM [rising, single point]"
CC(C)OC(=O)CN1CCN(c2ccc(Cl)cc2)CC1,-4.95,–,"0.461 µM [falling, partial curve, poor fit]"
CCn1c(C)[n+](CCOCC[n+]2c(C)n(CC)c3cc(Cl)c(Cl)cc32)c2cc(Cl)c(Cl)cc21,-5.99,–,"0.731 µM [falling, full curve]"
CN(CC(=O)Nc1ccccc1Br)C(=O)Cn1[nH]c(=O)c2ccccc2c1=O,8.78,–,"23.1 µM [rising, single point]"
CSc1cccc(CNC(=O)C2CCC(=O)N(CC3CCCCC3)C2)c1 (stereo unspecified),-18.8,–,"0.731 µM [falling, single point]"
O=C(CSc1nnc(-c2ccc(Br)cc2)o1)Nc1cccc2ccccc12,65.9,"29.1 µM [rising, single point]","0.731 µM [rising, partial curve, poor fit]"
CCC(C)NC(=O)c1cc(S(=O)(=O)N2CCCCC2)c[nH]1 (stereo unspecified),0.299,–,"6.51 µM [rising, partial curve, poor fit]"
COc1ccc(N2CCN(Cc3cc(=O)oc4ccc(Cl)cc34)CC2)cc1,9.5,–,–
Cc1c2c(n3c(nc4ccccc43)c1C#N)N(c1ccccc1)CC2,33.5,"1.84 µM [rising, full curve]","4.61 µM [falling, single point]"
COCNc1nc(OCC#N)nc(N(C)C)n1,-1.35,–,–
O=C(O)c1cc(-c2ccco2)nn1-c1cccc(Cl)c1,-21.2,"0.00461 µM [falling, full curve, poor fit]","0.00461 µM [falling, full curve, poor fit]"

SMILES,cell number change [%],AC50 [1],AC50 [2]
O=C(CSc1nncn1-c1ccccc1)NCc1cccs1,7.76,–,"18.4 µM [rising, single point]"
Cc1c(NS(=O)(=O)c2ccc3[nH]c(=O)[nH]c3c2)c(=O)n(-c2ccccc2)n1C,0.602,–,"29.1 µM [falling, single point]"
Cc1ccc(N2C(=O)N(CC(=O)Nc3cccc(Cl)c3)C(=O)C2C)cc1 (stereo unspecified),57,"16.4 µM [rising, single point]",–
Cc1n[nH]c(=O)c2c(NC(=O)COC(=O)Cc3c(F)cccc3Cl)oc(C)c12,56.2,"0.366 µM [rising, full curve, poor fit]","0.58 µM [rising, partial curve, poor fit]"
CN(C(=O)COC(=O)c1cccc(S(=O)(=O)N2CCCCC2)c1)C1CCS(=O)(=O)C1 (stereo unspecified),1.27,–,"0.184 µM [falling, full curve, poor fit]"
Brc1ccccc1Cn1c(-c2cncs2)nc2ccccc21,14.1,–,–
CCCCn1c(=O)[nH]c(=O)c2c1nc(-c1ccc([N+](=O)[O-])cc1)n2CC,13.1,–,"0.58 µM [rising, single point]"
CCN(CC(=O)Nc1c(F)cccc1F)C(=O)c1ccc(S(=O)(=O)N2CCCCCC2)cc1,-25,–,–
Cc1cccc(NC(=O)CSc2nnc(NC(=O)C3CC3)s2)c1C,-7.26,–,–
C/C(CC(=O)Nc1cccc(C(F)(F)F)c1)=N\NC(=O)c1cnccn1,6.09,–,"6.51 µM [rising, single point]"
O=C1CCCCC1C(=O)c1cn(-c2ccc(Cl)c(Cl)c2)nn1 (stereo unspecified),16.2,"2.06 µM [rising, partial curve, poor fit]","2.06 µM [rising, partial curve, poor fit]"
Cc1cc2cc(CN(CCCN3CCOCC3)C(=O)NC3CCCCC3)c(=O)[nH]c2cc1C,133,"3.26 µM [rising, partial curve]","5.17 µM [rising, partial curve]"
CS(=O)(=O)N(CC(=O)N1CCc2ccccc2C1)Cc1ccc(F)cc1,–,–,"0.146 µM [falling, full curve]"
O=C(Nc1ccccc1)N(C1=NCCC1)c1ccccc1,27.3,–,–
CCCN(Cc1nnc(-c2ccccc2Cl)o1)C(=O)c1cc2ccccc2o1,106,"5.17 µM [rising, partial curve]",–
Cc1ccc(C(C(=O)NCc2ccccc2)N(Cc2ccco2)C(=O)c2snc(C(N)=O)c2N)o1 (stereo unspecified),12.8,–,–
CN(C)c1nc(N2CCN(c3ccc(F)cc3)CC2)c(C#N)c(=O)o1,–,–,"0.58 µM [falling, single point]"
Cc1cccc(N2CCN(C(=O)c3ccc(CS(=O)(=O)c4ccccc4C)o3)CC2C)c1 (stereo unspecified),-32,"8.2 µM [falling, partial curve]","16.4 µM [falling, partial curve]"
